Reference: article PMC4749557
Results are given in words; binding and its absence hold for the method and conditions named. In cells and extracts the contact can be indirect. Where a sequence is shown, tags or fusion partners need not be part of it.

Chains of the proteins cited; added tags and fusions are not shown.
UniProt Q80U70: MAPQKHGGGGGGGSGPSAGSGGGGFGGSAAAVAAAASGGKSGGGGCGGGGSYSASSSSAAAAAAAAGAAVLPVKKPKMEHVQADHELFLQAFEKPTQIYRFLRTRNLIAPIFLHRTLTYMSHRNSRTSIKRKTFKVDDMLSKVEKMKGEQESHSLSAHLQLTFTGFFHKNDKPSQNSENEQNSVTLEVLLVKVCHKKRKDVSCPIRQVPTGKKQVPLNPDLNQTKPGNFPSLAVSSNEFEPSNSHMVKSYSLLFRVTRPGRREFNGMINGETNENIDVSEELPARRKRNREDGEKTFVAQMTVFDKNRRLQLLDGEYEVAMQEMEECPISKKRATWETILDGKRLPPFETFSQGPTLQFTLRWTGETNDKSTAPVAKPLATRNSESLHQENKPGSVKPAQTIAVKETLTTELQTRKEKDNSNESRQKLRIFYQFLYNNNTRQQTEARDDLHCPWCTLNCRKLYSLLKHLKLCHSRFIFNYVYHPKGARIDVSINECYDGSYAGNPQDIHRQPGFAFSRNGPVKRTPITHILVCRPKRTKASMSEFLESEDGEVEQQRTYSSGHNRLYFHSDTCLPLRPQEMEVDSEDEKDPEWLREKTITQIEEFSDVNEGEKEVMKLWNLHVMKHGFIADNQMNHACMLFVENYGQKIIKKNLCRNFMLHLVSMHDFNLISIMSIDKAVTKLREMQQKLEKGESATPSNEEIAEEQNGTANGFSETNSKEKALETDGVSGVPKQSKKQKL

Target: T1, FLAG–HA tagged Prdm14 (FH-Prdm14), stably expressed in mESCs (mouse) (UniProt E9Q3T6)
T1 sequence: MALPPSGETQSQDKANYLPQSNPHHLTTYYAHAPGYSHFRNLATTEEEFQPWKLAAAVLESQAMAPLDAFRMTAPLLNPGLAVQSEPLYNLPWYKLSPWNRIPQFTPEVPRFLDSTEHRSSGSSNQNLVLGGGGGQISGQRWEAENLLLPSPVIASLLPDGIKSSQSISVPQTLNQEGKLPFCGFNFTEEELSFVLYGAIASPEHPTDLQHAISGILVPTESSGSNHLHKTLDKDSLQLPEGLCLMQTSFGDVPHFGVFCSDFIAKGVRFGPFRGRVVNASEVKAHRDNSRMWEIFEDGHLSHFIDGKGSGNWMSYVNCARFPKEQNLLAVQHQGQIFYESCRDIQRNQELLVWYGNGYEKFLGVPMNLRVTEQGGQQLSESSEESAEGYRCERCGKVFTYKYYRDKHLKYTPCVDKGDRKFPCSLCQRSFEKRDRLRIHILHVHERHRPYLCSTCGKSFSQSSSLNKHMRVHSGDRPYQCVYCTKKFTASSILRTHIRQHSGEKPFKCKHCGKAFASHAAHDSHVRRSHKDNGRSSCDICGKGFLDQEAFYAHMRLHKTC
Test: pull-down; proteins co-precipitated with Prdm14 that was captured by monobody on M280 streptavidin dynabeads from FH-Prdm14 or wt mESC extracts; Western blot

binding: no binding
Substance: Suz12, endogenous in mESCs (from UniProt Q80U70 1-741)
